The data set deals with GST-ZmHDZ4 (Zea mays). The data set is described as follows: EMSA. To be noted: 5 mM Mg2+, poly(dI-dC); EMSA: 20 ul with 20 ng protein, 5 ng DIG probe, 10 mM Tris pH 7.5, 50 mM KCl, 1 mM DTT, 5 mM MgCl2, 2.5% glycerol, 0.05% NP-40, 50 ng/ul poly(dI-dC); 20 min, 25 C; recombinant protein; protein details: N-terminal GST (pGEX-4T-1); label: DIG.

Construct, isoform or probe ends are uncertain for at least one entry.

Experimental findings from publication PMC11656746 are described below.

With “AGCAGCGTTGCAATAATCATTCTGGGCACCTTGACC (double strand) [Motif1 probe (AATCAT)]”, the binding result is on record as “binds”.
For “AGCAGCGTTGCAATCGCATTATCTGGGCACCTTGACC (double strand) [Motif2 probe (CG.AT.AT)]”, the binding result was “binds”.
